PubChem BioAssay AID743121, NCATS, 2013
The deposit covers about 26,000 reagents; shown is a random part of them. Of all reagents, 167 (0.63%) were called active. 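Calls are per gene from RSA p-values that are not deposited; an individual active-marked siRNA can sensitise only weakly.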 The numbers tell different reagents against one gene apart.

Assay: 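Partners whose loss is lethal together with topoisomerase I blockade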 (primary screen)
Cells: MDA-MB-231 cells, a human breast cancer line
Knock-down reagent: single siRNA against human genes, 20 nM siRNA (0.8 pmol per well)
Duration: 120 h (drug added 48 h after transfection, read 72 h later)
Treatment: camptothecin 20 nM (about EC30) for 72 h; vehicle 0.1% DMSO in parallel plates
Detection: 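CellTiter-Glo ATP signal, scaled to control siRNA as percent viability; sensitisation given as log2 of untreated divided by camptothecin-treated viability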
Scale: log2 vehicle/camptothecin viability: higher = stronger sensitisation to camptothecin; viability with camptothecin and viability without drug: higher = more viable cells
Call rule: 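Active genes have an RSA gene-level p-value below 0.001, computed from the ratios of their separate siRNAs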

log2 vehicle/camptothecin viability | viability with camptothecin (% of control) | viability without drug (% of control) | Outcome | Gene | reagent no.
0.374 | 56.3 | 73 | inactive | CACNA2D2 | 1
-0.549 | 81.3 | 55.6 | inactive | CACNA2D2 | 2
-0.0152 | 89.8 | 88.8 | inactive | CACNA2D2 | 3
-0.137 | 84.8 | 77.1 | inactive | CACNA2D2 | 4
-0.33 | 43.3 | 34.4 | inactive | PLOD1 (procollagen-lysine,2-oxoglutarate 5-dioxygenase 1) | 1
0.383 | 54.4 | 70.9 | inactive | PLOD1 (procollagen-lysine,2-oxoglutarate 5-dioxygenase 1) | 2
-0.333 | 78.8 | 62.6 | inactive | PLOD1 (procollagen-lysine,2-oxoglutarate 5-dioxygenase 1) | 3
-0.104 | 96.5 | 89.8 | inactive | PLOD1 (procollagen-lysine,2-oxoglutarate 5-dioxygenase 1) | 4
-0.132 | 75.6 | 69 | inactive | ABCB1 (ATP binding cassette subfamily B member 1) | 1
-0.46 | 33.2 | 24.2 | inactive | ABCB1 (ATP binding cassette subfamily B member 1) | 2
-0.253 | 103 | 86.4 | inactive | ABCB1 (ATP binding cassette subfamily B member 1) | 3
-0.0216 | 57.4 | 56.5 | inactive | ABCB1 (ATP binding cassette subfamily B member 1) | 4
-0.34 | 56.9 | 45 | inactive | THOP1 (thimet oligopeptidase 1) | 1
-0.0968 | 48 | 44.9 | inactive | THOP1 (thimet oligopeptidase 1) | 2
-0.24 | 83.8 | 70.9 | inactive | THOP1 (thimet oligopeptidase 1) | 3
0.808 | 10.1 | 17.7 | inactive | THOP1 (thimet oligopeptidase 1) | 4
-0.399 | 84.4 | 64 | inactive | PRSS54 (serine protease 54) | 1
-0.655 | 73.8 | 46.9 | inactive | PRSS54 (serine protease 54) | 2
-0.0397 | 81.8 | 79.5 | inactive | PRSS54 (serine protease 54) | 3
-0.344 | 57.7 | 45.5 | inactive | PRSS54 (serine protease 54) | 4
-0.0966 | 102 | 95 | inactive | BTC (betacellulin) | 1
-0.28 | 108 | 89.2 | inactive | BTC (betacellulin) | 2
1.35 | 10.1 | 25.9 | inactive | BTC (betacellulin) | 3
-0.248 | 81.7 | 68.8 | inactive | BTC (betacellulin) | 4
0.0785 | 82.9 | 87.5 | inactive | GEMIN2 (gem nuclear organelle associated protein 2) | 1
-0.54 | 81 | 55.7 | inactive | GEMIN2 (gem nuclear organelle associated protein 2) | 2
-0.128 | 84.6 | 77.4 | inactive | GEMIN2 (gem nuclear organelle associated protein 2) | 3
0.28 | 68 | 82.5 | inactive | GEMIN2 (gem nuclear organelle associated protein 2) | 4
-0.164 | 102 | 90.7 | inactive | FBXL20 (F-box and leucine rich repeat protein 20) | 1
0.096 | 36.6 | 39.1 | inactive | FBXL20 (F-box and leucine rich repeat protein 20) | 2
1.42 | 34.6 | 92.4 | inactive | FBXL20 (F-box and leucine rich repeat protein 20) | 3
-0.337 | 72.3 | 57.2 | inactive | FBXL20 (F-box and leucine rich repeat protein 20) | 4
-0.168 | 98.1 | 87.4 | inactive | GSTA1 (glutathione S-transferase alpha 1) | 1
-0.545 | 107 | 73.4 | inactive | GSTA1 (glutathione S-transferase alpha 1) | 2
-0.0307 | 102 | 99.5 | inactive | GSTA1 (glutathione S-transferase alpha 1) | 3
-0.185 | 106 | 93 | inactive | GSTA1 (glutathione S-transferase alpha 1) | 4
-0.143 | 63.9 | 57.9 | inactive | OLFML2A (olfactomedin like 2A) | 1
-0.132 | 70.7 | 64.5 | inactive | OLFML2A (olfactomedin like 2A) | 2
-0.0847 | 56.9 | 53.6 | inactive | OLFML2A (olfactomedin like 2A) | 3
0.0216 | 69.7 | 70.7 | inactive | OLFML2A (olfactomedin like 2A) | 4
-0.368 | 46.7 | 36.2 | inactive | GTF2H3 (general transcription factor IIH subunit 3) | 1
-0.229 | 95.6 | 81.6 | inactive | GTF2H3 (general transcription factor IIH subunit 3) | 2
0.0498 | 115 | 119 | inactive | GTF2H3 (general transcription factor IIH subunit 3) | 3
0.0202 | 69.6 | 70.6 | inactive | GK2 (glycerol kinase 2) | 1
-0.0295 | 121 | 118 | inactive | GK2 (glycerol kinase 2) | 2
0.0874 | 107 | 113 | inactive | GK2 (glycerol kinase 2) | 3
-0.342 | 67.6 | 53.3 | inactive | GK2 (glycerol kinase 2) | 4
-0.393 | 54.3 | 41.3 | inactive | SLC24A4 | 1
-0.422 | 82.7 | 61.7 | inactive | SLC24A4 | 2
-0.116 | 64.7 | 59.8 | inactive | SLC24A4 | 3
0.147 | 71.3 | 79 | inactive | SLC24A4 | 4
-0.149 | 108 | 97.1 | inactive | GLRA3 (glycine receptor alpha 3) | 1
-0.285 | 99.6 | 81.8 | inactive | GLRA3 (glycine receptor alpha 3) | 2
0.253 | 43.8 | 52.2 | inactive | GLRA3 (glycine receptor alpha 3) | 3
-0.275 | 92.8 | 76.7 | inactive | MYD88 (MYD88 innate immune signal transduction adaptor) | 1
-0.593 | 103 | 68.4 | inactive | MYD88 (MYD88 innate immune signal transduction adaptor) | 2
0.192 | 71.1 | 81.3 | inactive | MYD88 (MYD88 innate immune signal transduction adaptor) | 3
0.173 | 44.5 | 50.1 | inactive | MYD88 (MYD88 innate immune signal transduction adaptor) | 4
-0.042 | 107 | 104 | inactive | LEPROT (leptin receptor overlapping transcript) | 1
-0.455 | 25.3 | 18.4 | inactive | LEPROT (leptin receptor overlapping transcript) | 2
-0.322 | 46.3 | 37.1 | inactive | LEPROT (leptin receptor overlapping transcript) | 3
-0.165 | 112 | 100 | inactive | LEPROT (leptin receptor overlapping transcript) | 4
-0.608 | 84.9 | 55.7 | inactive | ALPI (alkaline phosphatase, intestinal) | 1
0.428 | 33.5 | 45 | inactive | ALPI (alkaline phosphatase, intestinal) | 2
-0.09 | 78.3 | 73.5 | inactive | ALPI (alkaline phosphatase, intestinal) | 3
1.21 | 11.1 | 25.7 | inactive | ALPI (alkaline phosphatase, intestinal) | 4
-0.0964 | 100 | 94 | inactive | CDC42BPA (CDC42 binding protein kinase alpha) | 1
-0.111 | 79.8 | 73.9 | inactive | CDC42BPA (CDC42 binding protein kinase alpha) | 2
-0.225 | 74.6 | 63.8 | inactive | CDC42BPA (CDC42 binding protein kinase alpha) | 3
-0.196 | 117 | 102 | inactive | CDC42BPA (CDC42 binding protein kinase alpha) | 4
